Literature values as cited in patent US20100129344A1, “MEDICAL USES AND THERAPIES BASED UPON THE ACTION OF AZUROCIDIN ON IGFBP-1” (priority 2005, published 2010).
Some results were stated once for a whole list of compounds, not compound by compound.

Target: T1, non-phosphorylated IGFBP-1 (Homo sapiens, UniProt P08833)
T1 sequence (P08833 26-259): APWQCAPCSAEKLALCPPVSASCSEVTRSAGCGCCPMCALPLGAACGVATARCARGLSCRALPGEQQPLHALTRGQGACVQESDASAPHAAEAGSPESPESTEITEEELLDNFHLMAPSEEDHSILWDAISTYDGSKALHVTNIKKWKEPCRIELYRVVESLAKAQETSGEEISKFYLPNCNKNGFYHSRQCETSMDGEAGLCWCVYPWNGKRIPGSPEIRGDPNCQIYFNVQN
Settings: other studies; cited from earlier work

In the case of “MMP-3: matrix metalloproteinase, comparison protease from other studies [reference compound]”, the “incubation time required to cleave non-phosphorylated IGFBP-1” value is given as > 18 h.
